Results from patent publication US5830703A, “DNA encoding adrenomedullin” (Shionogi & Co., Ltd., priority 1993, dated 1998).
At least one peptide structure holds a part that was inferred or is arguable (an end, a ring closure or a residue). Some compounds share one wording; it may come from a single statement. Where no end group is shown, it is not given here.

Experiments:
[1] = tested on: antiserum against peptide [40-52]NH2; assay: RIA utilizing an antibody against the C-terminal peptide fragment of adrenomedullin; format: binding, rabbit; settings: for reactivity / crossreactivity of the antiserum: antiserum raised against peptide [40-52]NH2
Male Wistar rats [2] = assay: Hypotensive effect in anesthetized rats (single intravenous injection); format: in vivo, rat
Male Wistar rats [3] = assay: Hemodynamic parameters (MBP, HR, CI, SVI, TPRI) in anesthetized rats after adrenomedullin; format: in vivo, rat; settings: 1.0 nmol/kg i.v., n=8
[4] = tested on: antiserum against peptide [(-73)-(-54)]NH2; assay: RIA utilizing proAM-N20 and its fragment; format: binding, rabbit; settings: antiserum raised against peptide [(-73)-(-54)]NH2
[5] = tested on: Cultured bovine adrenal medulla cells; assay: Effect of proAM-N20 on catecholamine secretion (unstimulated); format: cell-based; settings: 10^-6 M, 37° C., 10 minutes, n=2; control 2.56
[6] = tested on: Bovine adrenal medulla cells; assay: Effect of proAM-N20 on carbachol-stimulated catecholamine secretion; format: cell-based; settings: 10^-6 M, then carbachol 10^-4 M 10 minutes, control 14.36
sodium channel = assay: Effect on sodium channel: 22Na flow into carbachol-stimulated cells; format: cell-based, bovine; settings: for amount of 22Na which flowed into the cells: 10^-6 M preincubation 5 to 10 minutes, carbachol 300 μM 2 minutes, n=2, control 99.8; for inhibition of the flow of 22Na into cells: 10^-6 M preincubation, carbachol 300 μM
[7] = target: antiserum against peptide [1-12]; assay: RIA utilizing an antibody against the N-terminal peptide fragment of adrenomedullin; format: binding, rabbit; settings: antiserum at 1:6,000; 125I-labeled ligand; 24 hours, 4° C.
[8] = 2, 5 and 10 minutes after administration

`CC(C)C[C@H](NC(=O)CNC(=O)[C@H](C)NC(=O)[C@H](CC(C)C)NC(=O)[C@H](CCCNC(=N)N)NC(=O)[C@H](Cc1c[nH]cn1)NC(=O)[C@@H](NC(=O)[C@@H](NC(=O)[C@@H]1CSSC[C@H](NC(=O)[C@H](C)N)C(=O)N[C@@H](CC(=O)O)C(=O)N[C@@H]([C@@H](C)O)C(=O)N[C@@H](C)C(=O)N[C@@H]([C@@H](C)O)C(=O)N1)C(C)C)[C@@H](C)O)C(=O)N[C@@H](CC(C)C)C(=O)N[C@@H](CO)C(=O)N[C@@H](CCCNC(=N)N)C(=O)N[C@@H](CO)C(=O)NCC(=O)NCC(=O)N[C@H](C(=O)N[C@H](C(=O)N[C@@H](CCCCN)C(=O)N[C@@H](CC(N)=O)C(=O)N[C@@H](CC(N)=O)C(=O)N[C@@H](Cc1ccccc1)C(=O)N[C@H](C(=O)N1CCC[C@H]1C(=O)N[C@H](C(=O)N[C@@H](CC(N)=O)C(=O)N[C@H](C(=O)NCC(=O)N[C@@H](CO)C(=O)N[C@@H](CCCCN)C(=O)N[C@@H](C)C(=O)N[C@@H](Cc1ccccc1)C(N)=O)C(C)C)[C@@H](C)O)C(C)C)C(C)C)C(C)C` [CGRP, calcitonin gene related peptide, reference compound] was tested, and the “reactivity / crossreactivity of the antiserum” value (from here on “reactivity / crossreactivity”) [1] was “no crossreactivity”.

In the case of `CSCC[C@H](NC(=O)CNC(=O)CNC(=O)[C@H](CO)NC(=O)[C@H](CCCNC(=N)N)NC(=O)[C@H](CO)NC(=O)[C@H](CC(C)C)NC(=O)[C@H](CC(C)C)NC(=O)CNC(=O)[C@H](C)NC(=O)[C@H](CC(C)C)NC(=O)[C@H](CCCNC(=N)N)NC(=O)[C@H](Cc1c[nH]cn1)NC(=O)[C@@H](NC(=O)[C@@H](NC(=O)[C@@H]1CSSC[C@H](NC(=O)[C@H](C)N)C(=O)N[C@@H](CC(N)=O)C(=O)N[C@@H]([C@@H](C)O)C(=O)N[C@@H](C)C(=O)N[C@@H]([C@@H](C)O)C(=O)N1)C(C)C)[C@@H](C)O)C(=O)N[C@H](C(=O)N[C@@H](CCCCN)C(=O)N[C@@H](CO)C(=O)N[C@@H](CC(N)=O)C(=O)N[C@@H](Cc1ccccc1)C(=O)N[C@H](C(=O)N1CCC[C@H]1C(=O)N[C@H](C(=O)N[C@@H](CC(N)=O)C(=O)N[C@H](C(=O)NCC(=O)N[C@@H](CO)C(=O)N[C@@H](CCCCN)C(=O)N[C@@H](C)C(=O)N[C@@H](Cc1ccccc1)C(N)=O)C(C)C)[C@@H](C)O)C(C)C)C(C)C` [CGRP-II, reference compound], the “reactivity / crossreactivity” value [1] was “no crossreactivity”.

In the case of `CC[C@H](C)[C@H](NC(=O)[C@H](CCC(N)=O)NC(=O)[C@H](Cc1c[nH]cn1)NC(=O)[C@H](C)NC(=O)[C@H](CC(C)C)NC(=O)[C@H](CCCCN)NC(=O)[C@H](CCC(N)=O)NC(=O)[C@@H](NC(=O)[C@@H](NC(=O)[C@@H]1CSSC[C@H](NC(=O)CNC(=O)[C@H](Cc2ccccc2)NC(=O)[C@H](CO)NC(=O)[C@H](CCCNC(=N)N)NC(=O)[C@H](CC(C)C)NC(=O)CNC(=O)[C@H](CCC(N)=O)NC(=O)[C@H](Cc2ccccc2)NC(=O)[C@H](CC(N)=O)NC(=O)[C@H](CC(N)=O)NC(=O)[C@H](CCSC)NC(=O)[C@H](CO)NC(=O)[C@H](CCC(N)=O)NC(=O)[C@H](CCCNC(=N)N)NC(=O)[C@@H](N)Cc2ccc(O)cc2)C(=O)N[C@@H](CCCNC(=N)N)C(=O)N[C@@H](Cc2ccccc2)C(=O)NCC(=O)N[C@@H]([C@@H](C)O)C(=O)N1)[C@@H](C)O)C(C)C)C(=O)N[C@@H](Cc1ccc(O)cc1)C(=O)N[C@@H](CCC(N)=O)C(=O)N[C@@H](Cc1ccccc1)C(=O)N[C@H](C(=O)N[C@@H](CC(=O)O)C(=O)N[C@@H](CCCCN)C(=O)N[C@@H](CC(=O)O)C(=O)N[C@@H](CCCCN)C(=O)N[C@@H](CC(=O)O)C(=O)N[C@@H](CC(N)=O)C(=O)N[C@H](C(=O)N[C@@H](C)C(=O)N1CCC[C@H]1C(=O)N[C@@H](CCCNC(=N)N)C(=O)N[C@@H](CO)C(=O)N[C@@H](CCCCN)C(=O)N[C@H](C(=O)N[C@@H](CO)C(=O)N1CCC[C@H]1C(=O)N[C@@H](CCC(N)=O)C(=O)NCC(=O)N[C@@H](Cc1ccc(O)cc1)C(N)=O)[C@@H](C)CC)C(C)C)[C@@H](C)O` [adrenomedullin], the “vasodepressor response relative to maximal efficacy” value (Male Wistar rats [2]; 1.0 nmol/kg intravenous, preliminary test) was “approximately half of the maximal efficacy”, the “hypotensive activity compared with CGRP” value (Male Wistar rats [2]; 3.0 nmol/kg each, FIGS. 3C and 3D) was “comparable to that of CGRP” and the “maximal decrease in the mean blood pressure” value (Male Wistar rats [2]; 3.0 nmol/kg intravenously injected, mean±S.E.M., n=4) was 53±5.0 mmHg. The “hypotensive effect (in words)” value (Male Wistar rats [2]; single intravenous injection, 0.3, 1.0 and 3.0 nmol/kg) was “fast, potent and long lasting hypotensive effect in a dose dependent manner”, the “mean blood pressure (MBP)” value (Male Wistar rats [3]; [8]) was “significantly decreased” and the “total peripheral resistance index (TPRI)” value (Male Wistar rats [3]; [8]) was “significantly decreased”. For the same compound, the “mean blood pressure (MBP)” value (Male Wistar rats [3]; after 30 minutes) was “returned to the initial level”, the “cardiac index (CI)” value (Male Wistar rats [3]) was “increased” and the “heart rate (HR)” value (Male Wistar rats [3]) was “slightly decreased 2 minutes after the administration, but did not change significantly”. The “stroke volume index (SVI)” value (Male Wistar rats [3]) was “increased”, the “Half maximal inhibition of radioiodinated ligand binding” value (“Half maximal inhibition” for short) ([1]; antiserum at 1:180,000, 125I-labeled ligand, 24 hours, 4° C.) was 11 fmol/tube and the “reactivity / crossreactivity” value [1] was “crossreactivity”.

In the case of `CC[C@H](C)[C@H](NC(=O)[C@H](CCC(N)=O)NC(=O)[C@H](Cc1c[nH]cn1)NC(=O)[C@H](C)NC(=O)[C@H](CC(C)C)NC(=O)[C@H](CCCCN)NC(=O)[C@H](CCC(N)=O)NC(=O)[C@@H](NC(=O)[C@@H](NC(=O)[C@@H]1CSSC[C@H](NC(=O)CNC(=O)[C@H](Cc2ccccc2)NC(=O)[C@@H](N)CO)C(=O)N[C@@H](CCCNC(=N)N)C(=O)N[C@@H](Cc2ccccc2)C(=O)NCC(=O)N[C@@H]([C@@H](C)O)C(=O)N1)[C@@H](C)O)C(C)C)C(=O)N[C@@H](Cc1ccc(O)cc1)C(=O)N[C@@H](CCC(N)=O)C(=O)N[C@@H](Cc1ccccc1)C(=O)N[C@H](C(=O)N[C@@H](CC(=O)O)C(=O)N[C@@H](CCCCN)C(=O)N[C@@H](CC(=O)O)C(=O)N[C@@H](CCCCN)C(=O)N[C@@H](CC(=O)O)C(=O)N[C@@H](CC(N)=O)C(=O)N[C@H](C(=O)N[C@@H](C)C(=O)N1CCC[C@H]1C(=O)N[C@@H](CCCNC(=N)N)C(=O)N[C@@H](CO)C(=O)N[C@@H](CCCCN)C(=O)N[C@H](C(=O)N[C@@H](CO)C(=O)N1CCC[C@H]1C(=O)N[C@@H](CCC(N)=O)C(=O)NCC(=O)N[C@@H](Cc1ccc(O)cc1)C(N)=O)[C@@H](C)CC)C(C)C)[C@@H](C)O` [peptide [13-52]NH2], the “hypotensive effect compared with adrenomedullin [1-52]NH2” value (Male Wistar rats [2]; administered in the same manner as adrenomedullin) was “comparable hypotensive effect”.

For `CC(C)C[C@H](NC(=O)[C@H](C)NC(=O)[C@H](Cc1c[nH]c2ccccc12)NC(=O)[C@H](CCCCN)NC(=O)[C@H](CC(N)=O)NC(=O)[C@H](Cc1c[nH]c2ccccc12)NC(=O)[C@H](CCCCN)NC(=O)[C@H](CCCCN)NC(=O)[C@H](CCCNC(=N)N)NC(=O)[C@@H](N)Cc1ccccc1)C(=O)N[C@@H](CO)C(=O)N[C@@H](CCCNC(=N)N)C(N)=O` [peptide [(-65)-(-54)]NH2], the “reactivity / crossreactivity” value [4] was “crossreactivity”.

With ARLDVASEFRKKWNKWALSR [proAM-N20] the “amount of secreted catecholamine” value [5] was 1.64 μg/4×10^6 cells, the “amount of secreted catecholamine” value ([6]; 5 minute preincubation) was 11.31 μg/4×10^6 cells and the “amount of secreted catecholamine” value ([6]; 10 minute preincubation) was 9.19 μg/4×10^6 cells. The “amount of 22Na which flowed into the cells” value (sodium channel) was 70.5 nmol/dish and the “inhibition of the flow of 22Na into cells” value (sodium channel) was 30%.

In the case of ISPQGY [[47-52]], the “reactivity / crossreactivity” value [1] was “no crossreactivity”.

In the case of ISPQGY-NH2 [[47-52]NH2], the “reactivity / crossreactivity” value [1] was “crossreactivity”.

With NVAPRSKISPQGY-NH2 [peptide [40-52]NH2] the “reactivity / crossreactivity” value [1] was “reactivity”.

For QSMNNFQGLR [peptide [3-12]], the “Half maximal inhibition” value [7] was 10 fmol/tube.

With RKKWNKWALSR [proAM-N(10-20)] the “amount of 22Na which flowed into the cells” value (sodium channel) was 29.1 nmol/dish and the “inhibition of the flow of 22Na into cells” value (sodium channel) was 70%.

In the case of SKISPQGY [[45-52]], the “reactivity / crossreactivity” value [1] was “no crossreactivity”.

In the case of SKISPQGY-NH2 [[45-52]NH2], the “reactivity / crossreactivity” value [1] was “crossreactivity”.

With WALSR-NH2 [peptide [(-58)-(-54)]NH2] the “reactivity / crossreactivity” value [4] was “no crossreactivity”.

With WNKWALSR-NH2 [peptide [(-61)-(-54)]NH2] the “reactivity / crossreactivity” value [4] was “crossreactivity”.

With YRQSMNNFQGLR [peptide [1-12]] the “Half maximal inhibition” value [7] was 10 fmol/tube and the “reactivity / crossreactivity” value [1] was “no crossreactivity”.
